According to paper PMC8117505:
No constants are given. Whether binding was seen depends on the method and setting. Binding seen in cells or lysates may run through a third protein. Some results given as binding are weak or reduced against the parent protein; the word gives no strength. Sequences can lack the tags named with a protein.

The chains behind the UniProt entries cited, without tags or fusion partners.
UniProt Q16665: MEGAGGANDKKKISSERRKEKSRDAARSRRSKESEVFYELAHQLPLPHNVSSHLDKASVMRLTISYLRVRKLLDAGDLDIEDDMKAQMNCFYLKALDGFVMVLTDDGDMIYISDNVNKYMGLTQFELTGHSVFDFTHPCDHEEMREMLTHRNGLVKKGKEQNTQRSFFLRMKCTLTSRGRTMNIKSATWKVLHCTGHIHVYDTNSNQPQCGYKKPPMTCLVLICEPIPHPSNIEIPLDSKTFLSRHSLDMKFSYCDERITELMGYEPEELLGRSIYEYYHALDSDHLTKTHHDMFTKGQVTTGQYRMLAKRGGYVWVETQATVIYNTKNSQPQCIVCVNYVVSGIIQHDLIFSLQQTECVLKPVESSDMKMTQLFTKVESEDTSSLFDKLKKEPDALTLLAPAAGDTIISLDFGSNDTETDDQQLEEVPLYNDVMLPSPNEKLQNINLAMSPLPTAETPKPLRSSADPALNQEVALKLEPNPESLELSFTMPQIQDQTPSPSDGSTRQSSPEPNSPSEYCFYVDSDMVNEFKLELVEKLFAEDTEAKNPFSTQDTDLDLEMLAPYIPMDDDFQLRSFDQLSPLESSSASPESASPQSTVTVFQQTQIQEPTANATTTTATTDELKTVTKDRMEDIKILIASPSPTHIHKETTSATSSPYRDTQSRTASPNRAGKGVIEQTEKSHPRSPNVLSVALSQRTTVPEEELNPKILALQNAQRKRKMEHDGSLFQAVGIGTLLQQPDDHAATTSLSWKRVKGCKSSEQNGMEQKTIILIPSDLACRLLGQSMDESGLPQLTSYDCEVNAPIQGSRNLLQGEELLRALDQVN
UniProt P27540: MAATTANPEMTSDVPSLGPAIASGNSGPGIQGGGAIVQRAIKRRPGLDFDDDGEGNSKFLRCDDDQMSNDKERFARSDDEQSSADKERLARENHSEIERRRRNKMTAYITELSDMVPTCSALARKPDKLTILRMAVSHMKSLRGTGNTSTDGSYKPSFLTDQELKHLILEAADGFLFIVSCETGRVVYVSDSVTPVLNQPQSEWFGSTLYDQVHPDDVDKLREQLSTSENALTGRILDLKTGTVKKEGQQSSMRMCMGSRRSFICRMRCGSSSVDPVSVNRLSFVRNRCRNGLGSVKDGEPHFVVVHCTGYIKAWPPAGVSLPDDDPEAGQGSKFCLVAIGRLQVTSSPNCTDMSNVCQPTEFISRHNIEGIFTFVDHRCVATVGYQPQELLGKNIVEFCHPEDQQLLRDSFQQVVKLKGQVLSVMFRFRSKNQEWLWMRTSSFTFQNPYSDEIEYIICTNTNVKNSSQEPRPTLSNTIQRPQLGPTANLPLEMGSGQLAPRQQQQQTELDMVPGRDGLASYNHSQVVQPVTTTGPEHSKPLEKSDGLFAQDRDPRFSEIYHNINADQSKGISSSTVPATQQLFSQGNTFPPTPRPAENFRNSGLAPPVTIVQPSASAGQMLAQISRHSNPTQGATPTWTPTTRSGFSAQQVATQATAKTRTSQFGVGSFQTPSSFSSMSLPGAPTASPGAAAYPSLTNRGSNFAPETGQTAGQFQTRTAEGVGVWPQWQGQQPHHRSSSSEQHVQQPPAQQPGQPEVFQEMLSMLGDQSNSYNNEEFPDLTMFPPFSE

Target: T1, GST-ATF5 (UniProt Q9Y2D1)
T1 sequence: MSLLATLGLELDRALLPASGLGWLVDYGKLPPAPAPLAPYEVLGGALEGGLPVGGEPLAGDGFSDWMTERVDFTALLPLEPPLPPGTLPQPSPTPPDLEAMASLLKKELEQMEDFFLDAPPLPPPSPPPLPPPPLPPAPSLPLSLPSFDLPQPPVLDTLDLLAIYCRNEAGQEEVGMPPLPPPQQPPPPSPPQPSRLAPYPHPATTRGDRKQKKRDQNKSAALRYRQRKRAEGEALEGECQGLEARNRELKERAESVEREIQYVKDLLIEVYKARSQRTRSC
Experiment: pull-down; GST-ATF5 on GST beads incubated with in vitro-transcribed/translated proteins, washed five times, western blot; only the target purified

| Substance | binding |
| --- | --- |
| HIF1α (in vitro-transcribed/translated) (from UniProt Q16665 1-826) | binds |
| HIF1β (in vitro-transcribed/translated) (from UniProt P27540 1-789) | no binding |
